The supplement of paper PMC10849652
This is one part of the list.

By UniProt entry, the sequences of proteins in these tests, tags left out. Where a name states a change or a piece, a line headed by the entry shows the natural chain unless it says otherwise.
UniProt O94927: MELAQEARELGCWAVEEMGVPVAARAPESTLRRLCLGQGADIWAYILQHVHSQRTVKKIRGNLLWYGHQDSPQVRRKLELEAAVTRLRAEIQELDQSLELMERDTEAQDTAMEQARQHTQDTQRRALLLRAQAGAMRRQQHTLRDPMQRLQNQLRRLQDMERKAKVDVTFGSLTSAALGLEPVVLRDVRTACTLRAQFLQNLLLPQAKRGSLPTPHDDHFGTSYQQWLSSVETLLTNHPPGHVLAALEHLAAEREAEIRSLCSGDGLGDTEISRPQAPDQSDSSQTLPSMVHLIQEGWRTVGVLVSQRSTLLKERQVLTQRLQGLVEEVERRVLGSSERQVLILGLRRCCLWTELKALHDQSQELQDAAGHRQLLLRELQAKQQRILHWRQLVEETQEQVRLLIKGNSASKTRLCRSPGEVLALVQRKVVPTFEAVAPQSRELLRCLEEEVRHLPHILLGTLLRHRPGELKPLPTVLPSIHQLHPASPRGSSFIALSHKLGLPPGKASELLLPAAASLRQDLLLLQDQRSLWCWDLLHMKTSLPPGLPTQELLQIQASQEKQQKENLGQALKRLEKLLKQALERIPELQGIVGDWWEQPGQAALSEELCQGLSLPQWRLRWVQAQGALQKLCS
UniProt Q7Z4Q2: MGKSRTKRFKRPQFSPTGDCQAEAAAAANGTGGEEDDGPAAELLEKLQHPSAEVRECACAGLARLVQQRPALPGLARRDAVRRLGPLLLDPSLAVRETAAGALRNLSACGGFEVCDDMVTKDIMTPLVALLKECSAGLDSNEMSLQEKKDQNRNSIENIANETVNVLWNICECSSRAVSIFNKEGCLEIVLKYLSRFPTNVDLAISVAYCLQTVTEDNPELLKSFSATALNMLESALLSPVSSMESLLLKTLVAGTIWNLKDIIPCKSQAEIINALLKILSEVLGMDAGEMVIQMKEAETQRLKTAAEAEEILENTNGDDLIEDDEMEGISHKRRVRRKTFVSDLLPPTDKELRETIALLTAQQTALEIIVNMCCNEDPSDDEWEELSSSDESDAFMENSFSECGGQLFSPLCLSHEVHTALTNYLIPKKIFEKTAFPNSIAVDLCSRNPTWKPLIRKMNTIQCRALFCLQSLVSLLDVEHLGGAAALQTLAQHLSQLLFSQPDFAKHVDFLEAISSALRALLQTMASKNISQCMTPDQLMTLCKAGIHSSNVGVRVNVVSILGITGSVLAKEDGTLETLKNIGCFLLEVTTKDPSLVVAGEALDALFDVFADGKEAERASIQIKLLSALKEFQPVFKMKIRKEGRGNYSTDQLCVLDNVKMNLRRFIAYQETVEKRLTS
UniProt O00178: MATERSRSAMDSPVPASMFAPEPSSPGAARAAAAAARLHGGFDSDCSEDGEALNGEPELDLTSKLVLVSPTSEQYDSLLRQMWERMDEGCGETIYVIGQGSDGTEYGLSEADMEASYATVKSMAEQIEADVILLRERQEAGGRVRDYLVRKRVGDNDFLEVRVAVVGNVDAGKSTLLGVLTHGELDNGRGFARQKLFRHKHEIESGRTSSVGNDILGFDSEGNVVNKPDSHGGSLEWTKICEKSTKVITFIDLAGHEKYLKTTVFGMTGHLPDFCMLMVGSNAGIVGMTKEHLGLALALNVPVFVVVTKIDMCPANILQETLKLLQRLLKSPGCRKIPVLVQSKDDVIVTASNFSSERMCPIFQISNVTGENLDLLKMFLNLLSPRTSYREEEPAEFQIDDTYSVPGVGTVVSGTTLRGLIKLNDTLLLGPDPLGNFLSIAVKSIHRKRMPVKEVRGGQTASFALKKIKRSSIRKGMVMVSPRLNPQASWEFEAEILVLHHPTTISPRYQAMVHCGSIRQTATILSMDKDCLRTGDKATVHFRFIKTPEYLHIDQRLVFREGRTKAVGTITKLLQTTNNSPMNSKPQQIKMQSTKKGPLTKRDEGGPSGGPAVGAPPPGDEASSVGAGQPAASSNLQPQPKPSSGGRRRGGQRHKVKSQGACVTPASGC
UniProt P16403, whole entry, looked up: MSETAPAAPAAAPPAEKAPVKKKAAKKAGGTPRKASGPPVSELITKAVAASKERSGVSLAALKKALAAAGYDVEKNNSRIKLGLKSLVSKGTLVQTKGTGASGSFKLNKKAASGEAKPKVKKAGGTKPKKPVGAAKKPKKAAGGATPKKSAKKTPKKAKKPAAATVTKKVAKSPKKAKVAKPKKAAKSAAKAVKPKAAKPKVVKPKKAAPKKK
UniProt P02724: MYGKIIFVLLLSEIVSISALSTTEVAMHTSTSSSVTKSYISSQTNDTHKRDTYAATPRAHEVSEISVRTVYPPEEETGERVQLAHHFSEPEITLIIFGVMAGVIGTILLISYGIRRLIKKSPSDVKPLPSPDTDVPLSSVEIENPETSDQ
UniProt P02100: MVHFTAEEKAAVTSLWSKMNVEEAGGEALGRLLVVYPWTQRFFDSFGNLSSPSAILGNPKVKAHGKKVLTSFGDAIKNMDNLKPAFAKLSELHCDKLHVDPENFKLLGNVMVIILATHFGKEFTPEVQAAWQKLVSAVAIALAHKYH
UniProt Q9UQL6: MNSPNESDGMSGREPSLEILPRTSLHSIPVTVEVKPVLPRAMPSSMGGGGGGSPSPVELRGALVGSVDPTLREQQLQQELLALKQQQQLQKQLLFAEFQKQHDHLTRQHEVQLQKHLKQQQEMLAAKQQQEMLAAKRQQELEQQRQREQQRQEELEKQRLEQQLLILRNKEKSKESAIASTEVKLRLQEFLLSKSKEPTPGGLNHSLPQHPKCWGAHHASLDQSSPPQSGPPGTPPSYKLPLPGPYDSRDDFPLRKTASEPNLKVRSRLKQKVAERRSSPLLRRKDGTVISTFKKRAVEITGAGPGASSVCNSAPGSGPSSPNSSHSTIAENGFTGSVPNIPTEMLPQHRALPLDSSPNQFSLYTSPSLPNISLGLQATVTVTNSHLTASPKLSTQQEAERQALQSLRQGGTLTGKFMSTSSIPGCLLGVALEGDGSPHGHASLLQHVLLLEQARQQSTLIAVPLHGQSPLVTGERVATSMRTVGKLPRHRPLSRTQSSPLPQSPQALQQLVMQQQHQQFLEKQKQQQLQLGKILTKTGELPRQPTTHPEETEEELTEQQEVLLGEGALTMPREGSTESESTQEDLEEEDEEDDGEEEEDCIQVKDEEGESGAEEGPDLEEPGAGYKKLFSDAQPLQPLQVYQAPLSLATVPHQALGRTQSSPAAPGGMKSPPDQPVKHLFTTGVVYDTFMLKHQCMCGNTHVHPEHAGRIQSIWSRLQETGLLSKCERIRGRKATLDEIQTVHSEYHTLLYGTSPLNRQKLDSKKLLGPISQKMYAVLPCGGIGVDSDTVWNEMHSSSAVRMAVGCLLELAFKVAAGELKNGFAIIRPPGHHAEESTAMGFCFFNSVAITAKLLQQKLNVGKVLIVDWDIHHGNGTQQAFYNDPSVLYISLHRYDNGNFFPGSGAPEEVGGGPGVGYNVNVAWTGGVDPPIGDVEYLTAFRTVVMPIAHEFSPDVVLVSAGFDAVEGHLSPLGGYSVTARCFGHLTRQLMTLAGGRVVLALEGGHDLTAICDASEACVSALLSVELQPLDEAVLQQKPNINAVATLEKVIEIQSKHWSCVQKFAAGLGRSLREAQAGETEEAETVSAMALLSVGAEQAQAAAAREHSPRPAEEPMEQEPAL
UniProt Q92522: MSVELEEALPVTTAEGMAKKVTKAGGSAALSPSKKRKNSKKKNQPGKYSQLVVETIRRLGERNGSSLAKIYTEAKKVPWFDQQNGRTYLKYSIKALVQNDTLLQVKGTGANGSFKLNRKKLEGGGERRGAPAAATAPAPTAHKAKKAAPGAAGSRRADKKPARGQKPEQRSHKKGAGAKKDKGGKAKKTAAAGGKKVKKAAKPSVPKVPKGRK
UniProt P69905, whole entry, looked up: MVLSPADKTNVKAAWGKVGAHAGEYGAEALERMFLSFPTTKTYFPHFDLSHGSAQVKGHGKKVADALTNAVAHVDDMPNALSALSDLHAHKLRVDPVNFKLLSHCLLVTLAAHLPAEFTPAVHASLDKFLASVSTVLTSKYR
UniProt Q9Y5Q9: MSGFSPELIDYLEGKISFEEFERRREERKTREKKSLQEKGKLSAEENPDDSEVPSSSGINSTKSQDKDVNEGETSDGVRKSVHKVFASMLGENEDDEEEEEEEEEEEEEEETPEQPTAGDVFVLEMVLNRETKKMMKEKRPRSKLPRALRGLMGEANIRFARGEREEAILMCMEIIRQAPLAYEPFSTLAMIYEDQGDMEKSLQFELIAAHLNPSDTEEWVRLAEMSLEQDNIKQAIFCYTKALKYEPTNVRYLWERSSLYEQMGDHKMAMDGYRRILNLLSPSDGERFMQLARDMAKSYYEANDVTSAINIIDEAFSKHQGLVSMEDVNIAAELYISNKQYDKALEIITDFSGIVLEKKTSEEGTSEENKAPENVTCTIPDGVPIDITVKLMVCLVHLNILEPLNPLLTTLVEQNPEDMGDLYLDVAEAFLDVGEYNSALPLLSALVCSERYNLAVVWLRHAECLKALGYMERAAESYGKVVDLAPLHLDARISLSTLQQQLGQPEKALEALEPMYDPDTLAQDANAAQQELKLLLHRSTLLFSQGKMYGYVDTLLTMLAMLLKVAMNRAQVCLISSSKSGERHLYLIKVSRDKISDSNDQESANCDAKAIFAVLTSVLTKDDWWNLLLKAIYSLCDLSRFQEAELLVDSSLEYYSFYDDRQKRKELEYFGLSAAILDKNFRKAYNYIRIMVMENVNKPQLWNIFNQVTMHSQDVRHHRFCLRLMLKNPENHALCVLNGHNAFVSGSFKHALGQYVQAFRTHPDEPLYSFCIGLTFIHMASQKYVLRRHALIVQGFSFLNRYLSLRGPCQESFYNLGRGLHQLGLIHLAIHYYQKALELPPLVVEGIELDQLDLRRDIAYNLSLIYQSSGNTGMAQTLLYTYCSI
UniProt P00390: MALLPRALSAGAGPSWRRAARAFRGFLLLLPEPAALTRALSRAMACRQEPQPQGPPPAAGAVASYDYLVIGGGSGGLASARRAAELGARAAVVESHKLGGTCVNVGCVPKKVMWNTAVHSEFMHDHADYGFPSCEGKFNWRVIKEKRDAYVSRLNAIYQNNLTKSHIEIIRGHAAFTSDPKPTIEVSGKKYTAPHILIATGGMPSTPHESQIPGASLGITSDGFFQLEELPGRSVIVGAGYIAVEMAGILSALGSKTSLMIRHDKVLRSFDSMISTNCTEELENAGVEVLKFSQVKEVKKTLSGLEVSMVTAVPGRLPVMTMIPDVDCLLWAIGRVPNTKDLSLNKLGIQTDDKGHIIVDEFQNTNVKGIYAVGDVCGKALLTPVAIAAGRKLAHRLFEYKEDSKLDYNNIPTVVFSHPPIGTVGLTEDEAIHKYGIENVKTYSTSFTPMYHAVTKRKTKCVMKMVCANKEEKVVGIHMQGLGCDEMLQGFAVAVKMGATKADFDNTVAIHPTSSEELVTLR
UniProt P21266: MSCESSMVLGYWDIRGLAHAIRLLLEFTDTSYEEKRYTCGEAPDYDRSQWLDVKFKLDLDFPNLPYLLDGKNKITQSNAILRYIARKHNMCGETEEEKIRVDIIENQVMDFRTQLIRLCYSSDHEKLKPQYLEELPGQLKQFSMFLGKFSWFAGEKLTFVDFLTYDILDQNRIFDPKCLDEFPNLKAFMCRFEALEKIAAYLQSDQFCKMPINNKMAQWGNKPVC
UniProt Q8TD30: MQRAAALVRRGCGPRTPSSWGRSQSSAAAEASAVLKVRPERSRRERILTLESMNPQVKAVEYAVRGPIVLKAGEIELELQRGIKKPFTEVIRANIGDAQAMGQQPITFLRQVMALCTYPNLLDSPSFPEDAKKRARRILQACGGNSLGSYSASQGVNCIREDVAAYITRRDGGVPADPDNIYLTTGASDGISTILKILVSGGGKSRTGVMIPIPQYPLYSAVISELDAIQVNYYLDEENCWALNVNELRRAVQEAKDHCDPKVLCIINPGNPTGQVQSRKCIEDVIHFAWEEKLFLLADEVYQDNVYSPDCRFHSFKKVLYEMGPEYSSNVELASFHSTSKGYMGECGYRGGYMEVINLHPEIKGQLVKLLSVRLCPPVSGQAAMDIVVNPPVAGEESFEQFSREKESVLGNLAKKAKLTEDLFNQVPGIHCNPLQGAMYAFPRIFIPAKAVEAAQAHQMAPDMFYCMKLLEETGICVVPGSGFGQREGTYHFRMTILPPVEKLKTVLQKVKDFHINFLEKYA
UniProt P13984, whole entry, looked up: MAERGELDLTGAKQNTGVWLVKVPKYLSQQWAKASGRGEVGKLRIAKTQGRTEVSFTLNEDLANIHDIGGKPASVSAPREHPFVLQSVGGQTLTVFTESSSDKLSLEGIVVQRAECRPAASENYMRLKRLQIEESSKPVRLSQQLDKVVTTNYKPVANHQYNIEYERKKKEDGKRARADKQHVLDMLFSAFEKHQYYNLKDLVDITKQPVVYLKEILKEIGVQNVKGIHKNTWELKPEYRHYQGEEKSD
UniProt Q8WW33: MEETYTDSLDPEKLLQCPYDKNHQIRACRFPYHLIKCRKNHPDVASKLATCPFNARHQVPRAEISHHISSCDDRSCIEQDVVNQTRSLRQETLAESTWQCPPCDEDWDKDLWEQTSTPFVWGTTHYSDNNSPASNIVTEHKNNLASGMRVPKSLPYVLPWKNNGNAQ

compound: O=C1NC(=O)C(c2cnc3ccccn23)=C1c1cn2c3c(cc(F)cc13)CN(C(=O)N1CCCCC1)CC2; assay: log2 fold change, soluble protein after heating vs DMSO (PISA); higher = thermal stabilisation; K562 lysate, 10 uM; active = over 0.2 and 3.5 SD of the protein, either way, in both replicates (recomputed)
Procedure, shortened: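 A 30 min treatment with 10 μM compound was applied to crude K562 extract at 1 mg/mL protein in PBS pH 7.4 with 1 mM MgCl2. Heating for 3 min spanned 48°C-58°C, after which aliquots were pooled, adjusted to 0.5% NP-40 at 4°C and spun at 21,000xg for 90 min. TMTpro 16plex LC-MS/MS of the supernatant, with channel sums equalised, gave values recorded as log-two fold change in thermal stability against solvent controls, from duplicates.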

log2 fold change, inactive:
HEATR5B (UniProt Q9P2D3) 0.011, HAUS5 (UniProt O94927) -0.015, HEATR3 (UniProt Q7Z4Q2) -0.017, GSK3B isoform 2 (UniProt P49841) 0.657, GTPBP1 (UniProt O00178) -0.009, GRAP2 (UniProt O75791) -0.007, GTF2H2 (UniProt Q13888) 0.044, GSS (UniProt P48637) -0.004, GTF2H1 (UniProt P32780) -0.024, HBS1L isoform 2 (UniProt Q9Y450) -0.019, GRB2 (UniProt P62993) -0.026, H1-2 (UniProt P16403) 0.037, H3-3A (UniProt P84243) 0.026, GYPA (UniProt P02724) -0.04, HAUS8 (UniProt Q9BT25) 0.018, HBE1 (UniProt P02100) 0.015, HDAC5 isoform 3 (UniProt Q9UQL6) -0.001, HAUS4 (UniProt Q9H6D7) -0.017, H1FX (UniProt Q92522) 0.03, HADHB (UniProt P55084) 0.269, GSKIP (UniProt Q9P0R6) 0.044, GTF2E1 (UniProt P29083) -0.003, HBA1 (UniProt P69905) 0.036, GTF3C3 (UniProt Q9Y5Q9) 0.011, GSR isoform 5 (UniProt P00390) 0.095, HDAC6 (UniProt Q9UBN7) -0.047, GRHPR (UniProt Q9UBQ7) 0.015, HAUS3 (UniProt Q68CZ6) 0.004, GSTM3 (UniProt P21266) -0.092, GTPBP4 (UniProt Q9BZE4) -0.003, HDAC3 (UniProt O15379) -0.008, HCFC1 (UniProt P51610) 0.008, GPT2 (UniProt Q8TD30) -0.026, GTF2F2 (UniProt P13984) -0.019, GTSF1 (UniProt Q8WW33) -0.014, GTF2H4 (UniProt Q92759) -0.021
